# “Also recorded” adds a separate entry of the source.
# What was measured:
# [1] = tested on: EVs isolated from cow milk; test: Milk EV loading with Calcein AM; settings: PBS, 37 C
# Method: EVs were isolated from cow milk and loaded with neutral non-fluorescent Calcein AM (10 μM) for 48 hours at 37 C in PBS buffer at pH 8.5 (FIG. 30A). […] Purity and integrity of exosomes isolated from cow milk was confirmed by negative stain electron microscopy (EM). FIG. 30B) illustrates an exosome isolated from cow milk. Scale bar=50 nm. The methods described herein of isolation from milk were adapted to obtain high yields of EV, taking particular care not to cause rapid and/or large-scale precipitation of milk casein, as well as in centrifugation steps, which can reduce EV yields from milk.
# An exemplar of these methods is shown in FIGS. 31A-31C wherein Milk EVs incubated with Calcein AM show time-(FIG. 31A), pH-(FIG. 31B) and concentration-dependent effects on uptake of Calcein by EVs. Important to this method in the case of Calcein AM, are the multiple chemical groups linked by ester bonds to the molecule, which shield it's negatively charged moieties. Cleavage of these groups by ester bond breaking activities within EVs results in Calcein becoming negatively charged, fluorescent and retained within the EV—as exemplified by the green spots seen in most figure panels in FIG. 31. In FIG. 31A EVs are illustrated that were incubated for 1, 2 or 3 hours in PBS at 37 C at pH 7.4 with Calcein AM (5 μM). […]
# [2] = tested on: exosomes from HeLa Cx43GFP cells; test: Loading of Cx43GFP exosomes
Molecule,uptake and retention of Calcein by milk EVs [1],period of retention in exosomes [2]
Calcein AM,efficient loading and retention of dye in the EVs; also recorded: time dependent uptake; also recorded: pH dependent uptake; also recorded: concentration-dependent uptake; also recorded: increased by raising the alkalinity of the external solution to pH 8.5,
O=C(O)CN(CC(=O)O)Cc1cc2c(cc1O)Oc1cc(O)c(CN(CC(=O)O)CC(=O)O)cc1C21OC(=O)c2ccccc21 [Calcein],,at least 60 minutes
